Hit rate of the full screen: of about 31,000 sequences, about 1,400 (4.5%) were called active.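 Rule for the calls: active = median seed-adjusted z-score above 1 or below -1; inactive = the rest.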 Some of the results follow.

A short description of the assay: Novel Modifiers of Survival Motor Neuron (SMN) Protein: Gene Identification via Genome-wide siRNA Screen.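 Note: luminescence tracks full-length SMN protein made from the SMN2 reporter.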 Particulars: HEK293T SMN2-luciferase reporter, siRNA knockdown, 72 h; actives lie on both sides. An outline of the steps:
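Genome-wide siRNA screen (10418 genes, 3 siRNAs each, 1 pmol per well) by reverse transfection in HEK293T cells stably carrying an SMN2-luciferase reporter; luminescence after 72 hours, normalized to negative-control siRNA, log10-transformed, MAD-scored.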
For GGAGUAGACUCAACAGUUUTT against GMPS, the median seed-adjusted z-score is inactive: -0.485.
Then GAAGAAAUACCGUCAUUUUTT against PLD2, with inactive: -0.743.
GGAUGAGAACAUUAAAACATT against COQ3: the median seed-adjusted z-score was inactive: 0.426.
The result for GAUAAUUCCAUGACAUUAUTT against CYP39A1 reads inactive: 0.196; that for GGAUGAUCGCGGAUGGAUUTT against SLC4A8, inactive: -0.474.
For CGGGAGAAGUUAGCACUCUTT against SSBP2, the median seed-adjusted z-score was inactive: 0.
For CAACGGGACUAUUAUGAUATT against HNRNPC, the median seed-adjusted z-score was active: -2.15.
The result for CAAUCAGCACAAUGGUUCATT against ARAP2 reads inactive: 0.388.
The result for CAAUAGUAAAGGGAUAUAATT against MED27 reads active: -1.62; that for GGCUCAAUCCGGAGAAAGATT against SLC12A5, inactive: -0.22; that for GCUUCAAGCACAAAGGAAATT against DDX56, inactive: 0.904.
For the sequence CGUGUCCUGUCUGAACCAATT against ESCO2, the median seed-adjusted z-score was inactive: 0.
Then CAGUCAAGCUUGGAGUUAATT against SYTL3, with inactive: 0.236; and CAAGCGACUUUAUAGCCUUTT against PRKDC, with inactive: -0.485.
Then GCAACUUCAUUUCUCAUCUTT against CA6, with inactive: 0.349; and GGAUAUGCCUGAGUAUGAATT against SEC23A, with inactive: 0.131.
Then CUGUAUUAGUAGCAGUUGATT against ATP7A, with inactive: 0.
Take GGAGAUACCCUCAAGUAUATT against LRRTM3: the median seed-adjusted z-score is inactive: -0.0808.
The result for CACCAGCUACCAAUAAAAATT against FOXK2 reads inactive: -0.348; that for GCAGAGCCCUCAGCAAAUATT against TCOF1, inactive: 0.819; that for GUCAUUCACCAAAAACUUUTT against ZNF341, inactive: 0.356.
The result for AGAGAACUCUGGAACCCGUTT against HTRA2 reads inactive: -0.503; that for GACCUUUCCGAAUUCAGGATT against PPM1F, inactive: -0.231.
Then CAGUAGCAGUAAUACUAGATT against DDHD2, with inactive: 0.447.
As for GGGUUUAGGUGACUGUAUUTT against SLC25A31, the median seed-adjusted z-score is inactive: -0.615.
Then GGAAUUUAAGUGAUAGUGATT against CPEB2, with inactive: -0.00928.
Turning to CCAGCAUCAUCUUCGCAGATT against NUP210, the median seed-adjusted z-score was inactive: 0.0904.
Then AGAAUGUGGUUGUCCUGAATT against ACCS, with inactive: -0.49; and CCAGCUGUCUCAUGCCUUUTT against PLEKHF1, with inactive: 0.055.
As to GGUGAAACUUCUCUACAAATT against ZNF517, the median seed-adjusted z-score is inactive: 0.0158.
Regarding GAGAGGAAAUUACCACGAATT against ADAMDEC1, the median seed-adjusted z-score was inactive: 0.0106.
Then CUGUAUUCACGGCAAAUGATT against ACTR5, with inactive: -0.376; and GGUGAUACCCAGAAAACCATT against HS1BP3, with inactive: 0.418; and GGAGGAGUCUGACCCUGUATT against SIGLEC7, with inactive: -0.296.
The result for CUGUGACCAUAAUAACUGUTT against ZNF239 reads inactive: -0.191.
As to CGUGCAAGGUUGUGCGAUATT against GPR19, the median seed-adjusted z-score is inactive: 0.157.
The result for GAAUGACAAUAACUUUGUUTT against TFPI2 reads inactive: 0.519; that for GCAAAGGCCUUGUACGUCATT against USP10, inactive: 0.182.
The result for GGACUGUCAAUCUUAGAUATT against GRK4 reads inactive: -0.267; that for GAAACUUCCUUUUACCAUCTT against ERN1, inactive: 0.684.
Then UGAAGAACUUUGCACUGCATT against MGAT4B, with inactive: 0.0142; and GGAGCAACAUUAUAGUCAATT against TGS1, with inactive: -0.564; and GGACUUUCGGGAACGAGAATT against PFKM, with inactive: -0.362.
Consider AGGAAGCUGCUAAAGCACATT against NXF5, for which the median seed-adjusted z-score was inactive: -0.396.
Regarding GGUUGAAGACAUCAUAUUATT against GABRQ, the median seed-adjusted z-score was inactive: -0.54.
Turning to CCAGUUCUCGAUUCUUAAUTT against ZNF92, the median seed-adjusted z-score was inactive: -0.375.
The result for CAUUCUCAAUCUACCGGAATT against ARID4A reads inactive: 0.601; that for CUCUCUUAUUUGUAUCCUATT against SPRR3, inactive: 0.682; that for UGUCUUUUACUGUAAGUUATT against REPIN1, inactive: -0.0614.
Then CAACAUCUGAGGAUUCAUATT against ZNF713, with inactive: -0.0652; and CGAUGUUAGUGAGGACUAUTT against RPS6KL1, with inactive: 0.0816; and CCUUCACUAUUGCCCGCAATT against ABCD1, with inactive: 0.
Then CCCUGCUCACGUCCCUUUATT against HS3ST3A1, with inactive: -0.133.
As for GGCAUACAGUUCCGAGAAATT against AGL, the median seed-adjusted z-score was inactive: -0.385.
The result for GCAUUACUACCGCAACGUATT against RAB33A reads inactive: 0.307; that for CCAUUAUUGACUCACCCUATT against CSTF2T, inactive: 0.387; that for GCAAAUUUCUCACGCAUCATT against SERPINA6, inactive: 0.615.
The result for GGAAUAGUAACUACACGUATT against PLB1 reads inactive: -0.118; that for CGAAAGGUUUAGAAUCAGATT against FGD5, inactive: -0.0561; that for GCCGAGCUCUGCUAUUUGATT against ZHX3, inactive: -0.0916.
On to GGAAUUAAGUUCAAACGAATT against DDX21, for which the median seed-adjusted z-score was inactive: -0.251.
As for CAAUCGAGGUUCCAUGUAUTT against PKP1, the median seed-adjusted z-score was inactive: -0.99.
Then CUGCUUCUCUAGUGAGUAATT against UROS, with inactive: -0.248; and GGGCGUCUGGACAUCUGUATT against ASPH, with inactive: 0.0199.
With CGAUUACUGGUUCAGGAUATT against NDUFA10, the median seed-adjusted z-score was inactive: -0.392.
Regarding UGGUUUUACUGGAGCAUCATT against SLC15A3, the median seed-adjusted z-score was inactive: 0.
Then CCCAGACUCUAGAUAGACATT against SULT1C3, with inactive: -0.731; and GAGCGACUUUGAUCACCAUTT against PANK2, with inactive: 0.121.
Then GCUGGAGCAGAUUACCUAATT against ZNF280C, with inactive: 0.336; and CUGCCGCAACAAUAAGAAATT against SNRPD2, with inactive: -0.849.
The result for GAGAGUGUAAGAUCAGUAATT against ATRN reads inactive: -0.28; that for GGAAUCUACUGGGAACAAATT against AASS, inactive: -0.626.
Regarding AGAUCAAAGAGAUCCGCGATT against PCBP1, the median seed-adjusted z-score was inactive: 0.124.
As to CGACUAAAACAAUCUAAGATT against ATP6V1G3, the median seed-adjusted z-score is inactive: 0.489.
The result for GGAUGGUACCACUACAAUATT against ERCC6 reads inactive: 0.0421; that for GCACGCUCUUCAUCGCCUATT against MC1R, inactive: -0.64; that for GCACAAAGCUGAUCCUGCATT against MYO7A, inactive: -0.0127.
Regarding UCUACUAUGUCAUCCUGUATT against KCNE2, the median seed-adjusted z-score is inactive: -0.666.
The result for GCUCGUUCUGAGUCAUAUATT against LRBA reads inactive: 0.219; that for CAAGAGAUAUCAUCGAUUATT against ZRANB3, inactive: 0.0516; that for GAAUCGUCAAUGAUGAUCATT against DPYSL3, inactive: -0.226.
In the case of GGCCGUGUACUGUAUCAUUTT against NUP93, the median seed-adjusted z-score is active: 1.01.
On to CGAUGAUGGCGCAAAAGAATT against ATOH1, for which the median seed-adjusted z-score was inactive: -0.374.
As for CCCUGAAUCUUAAUAGGCATT against BBS4, the median seed-adjusted z-score was inactive: -0.0339.
The result for GGUCGAUCAUAUCCAUGUUTT against PDCD6 reads inactive: 0.325; that for GAUCAUGUCUGUCAUUCGATT against ATP2A2, inactive: 0.314; that for AGAUGAACCGUGCACUGGATT against PIGQ, inactive: 0.00996.
On to GCACGAGCCUUUCUCCAGUTT against RNASE7, for which the median seed-adjusted z-score was active: 1.07.
The result for UCAUCAAGCUGUUUACAGATT against GLP1R reads inactive: 0.
The result for GCAGGAGACUCAAAGAUUUTT against DDO reads inactive: -0.202.
Consider CGCUUGGAGAGGCUACAAATT against FXR2, for which the median seed-adjusted z-score is inactive: -0.133.
The result for GGAAUUUACAUGGUCUAUUTT against PHF6 reads inactive: -0.268.
Then GCAUCAGAUUUUGUGGGAATT against SLC25A36, with inactive: 0.134.
In the case of CUAAUAGAAUGUCUCCAAATT against HMGN2, the median seed-adjusted z-score was inactive: -0.038.
As to CAACACCAGAAGAUCCAUATT against ZNF22, the median seed-adjusted z-score was inactive: 0.47.
The result for GAGCGGCUCUUACAGGGAUTT against HOXB5 reads inactive: 0.061; that for CCACCCAUGUCAAAACCGATT against PTGS2, inactive: -0.21; that for GGAUCUCCUUGACAACCUUTT against TXN2, inactive: 0.87.
Take GCAUGGUAUUUGAAGUUUUTT against SRPK1: the median seed-adjusted z-score was inactive: 0.37.
On to AGAGCAUGGUAAAUACCAATT against CDC37, for which the median seed-adjusted z-score was inactive: 0.
The result for AGAACUCGCUGUAUACAAUTT against GP1BA reads inactive: 0.0803.
The result for GGUUAUCGACGACAGCAGATT against AGAP3 reads inactive: 0.554.
The result for GCAUAGUAGGAUUAAGGCATT against RAPGEF2 reads inactive: -0.0715; that for GGACCUAUCUGGAAGAGGATT against ITPKC, inactive: 0.218; that for GGCUCCUGGUUACGCUAUATT against MOGAT2, inactive: -0.319.
In the case of GGCUAUAUCGUCACAAUGATT against ABCA4, the median seed-adjusted z-score is active: -1.09.
As to GGUGUGAACUUGGUGAUCATT against DDX52, the median seed-adjusted z-score is inactive: -0.2.

The values above are taken from PubChem BioAssay AID1347426 (Functional Genomics Laboratory (NCATS/FGL), 2020).
